No constants are given. Whether binding was seen depends on the method and setting. In cells and extracts the contact can be indirect.
Target: HA-tagged human APOBEC3G R122A mutant (human) (UniProt Q9HC16)
Test: co-IP; HA-tagged A3G (WT or R122A) and GFP-tagged A3G WT transiently co-expressed in HEK293T; lysate precipitated with anti-HA beads; immunoblot with HA- and GFP-specific antibodies

Protein sequences, listed by entry. Tags and fused reporters are not part of them. Lines headed by an entry give the natural chain unless they say otherwise; changes in a name come on top.
UniProt Q9HC16: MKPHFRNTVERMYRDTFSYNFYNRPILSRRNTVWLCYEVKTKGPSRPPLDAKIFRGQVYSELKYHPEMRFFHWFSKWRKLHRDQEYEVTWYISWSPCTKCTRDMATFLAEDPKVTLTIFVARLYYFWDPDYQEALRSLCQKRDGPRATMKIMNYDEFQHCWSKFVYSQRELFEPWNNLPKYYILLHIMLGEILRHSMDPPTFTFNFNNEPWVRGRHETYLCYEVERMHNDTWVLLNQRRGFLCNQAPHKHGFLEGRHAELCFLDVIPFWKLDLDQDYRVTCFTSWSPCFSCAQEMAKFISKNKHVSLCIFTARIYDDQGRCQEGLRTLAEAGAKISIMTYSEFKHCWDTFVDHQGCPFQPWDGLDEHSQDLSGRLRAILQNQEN

binding: no binding
Substance: GFP-tagged APOBEC3G wild type (from UniProt Q9HC16 1-384)

Source: article PMC6536580
